Assay [1] has as its target T1, YAP (Yes-associated protein), endogenous (human (endogenous in MDA-MB231 and MCF10A)), P46937. Briefly: proximity ligation; in situ PLA (Duolink In Situ Orange Kit Mouse/Rabbit) on formaldehyde-fixed MDA-MB231 cells or doxycycline-induced ZEB1-overexpressing MCF10A cells; primary antibodies against ZEB1 and YAP/TAZ or TAZ; spots counted per nucleus. The settings on record: remark: other sources report otherwise.

Amino acid sequences for entries named in this document (tags omitted).
UniProt Q9GZV5: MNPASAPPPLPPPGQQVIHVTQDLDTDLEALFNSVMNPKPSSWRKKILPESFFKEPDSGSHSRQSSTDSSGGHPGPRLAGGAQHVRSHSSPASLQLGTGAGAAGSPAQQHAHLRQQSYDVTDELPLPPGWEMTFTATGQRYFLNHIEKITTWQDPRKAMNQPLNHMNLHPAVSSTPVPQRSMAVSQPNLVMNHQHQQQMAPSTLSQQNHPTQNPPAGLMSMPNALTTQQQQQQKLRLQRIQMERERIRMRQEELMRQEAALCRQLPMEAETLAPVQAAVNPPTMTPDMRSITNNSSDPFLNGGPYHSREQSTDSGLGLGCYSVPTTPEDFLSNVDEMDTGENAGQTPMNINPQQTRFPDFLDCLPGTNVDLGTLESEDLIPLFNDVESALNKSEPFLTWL

Assay [2] addresses T1, YAP (Yes-associated protein), …. The experiment in a line: co-IP; endogenous proteins of untransfected MDA-MB231 cells, 250 μg protein and 250 ng anti-YAP antibody (sc-101199); western blot. The following applies: remark: other sources report otherwise.
For assay [3], the target named is V5-tagged YAP, ectopically expressed, P46937. The experiment in a line: co-IP; nuclear extracts (20 mM HEPES pH 7.9, 400 mM NaCl, 1 mM EDTA, 1 mM DTT) of MCF7 or 293 cells transiently expressing V5-YAP and HA-ZEB1; IP with anti-HA affinity matrix or anti-V5 beads/antibody, 6 h, 4 °C; western blot. The following applies: remark: other sources report otherwise. A general note: In western blotting, separated proteins are transferred to a membrane and probed.

The target of assay [4] is TAZ (transcriptional co-activator with PDZ-binding motif), endogenous (human (endogenous in MDA-MB231)) (UniProt Q9GZV5). Briefly: proximity ligation; in situ PLA (Duolink In Situ Orange Kit Mouse/Rabbit) on formaldehyde-fixed MDA-MB231 cells or doxycycline-induced ZEB1-overexpressing MCF10A cells; primary antibodies against ZEB1 and YAP/TAZ or TAZ; spots counted per nucleus.

The target in assay [5] is His-tagged WT YAP, full length, in vitro synthesized, P46937. Briefly: pull-down; in vitro translated proteins (wheat germ) incubated in pull-down buffer (250 mM sucrose, 10 mM MOPS/KOH pH 7.2, 80 mM KCl, 5 mM MgCl2, 5 mM KH2PO4) 1 h at 37 °C; His-YAP held on Ni-NTA beads, 1 h at 4 °C, ten washes with 40 mM imidazole, elution with 250 mM imidazole; western blot. The following applies: remark: other sources report otherwise.

For five molecules, binding results are on record in paper PMC4756710.

These are yes or no findings as the source states them, for the method shown. Binding seen in cells or lysates may run through a third protein. Some results given as binding are weak or reduced against the parent protein; the word gives no strength. For part of these data: Where a sequence is shown, tags or fusion partners need not be part of it.

B1: ZEB1 (endogenous), P37275 1-1124 (protein)
chain: MADGPRCKRRKQANPRRNNVTNYNTVVETNSDSDDEDKLHIVEEESVTDAADCEGVPEDDLPTDQTVLPGRSSEREGNAKNCWEDDRKEGQEILGPEAQADEAGCTVKDDECESDAENEQNHDPNVEEFLQQQDTAVIFPEAPEEDQRQGTPEASGHDENGTPDAFSQLLTCPYCDRGYKRFTSLKEHIKYRHEKNEDNFSCSLCSYTFAYRTQLERHMTSHKSGRDQRHVTQSGCNRKFKCTECGKAFKYKHHLKEHLRIHSGEKPYECPNCKKRFSHSGSYSSHISSKKCISLIPVNGRPRTGLKTSQCSSPSLSASPGSPTRPQIRQKIENKPLQEQLSVNQIKTEPVDYEFKPIVVASGINCSTPLQNGVFTGGGPLQATSSPQGMVQAVVLPTVGLVSPISINLSDIQNVLKVAVDGNVIRQVLENNQANLASKEQETINASPIQQGGHSVISAISLPLVDQDGTTKIIINYSLEQPSQLQVVPQNLKKENPVATNSCKSEKLPEDLTVKSEKDKSFEGGVNDSTCLLCDDCPGDINALPELKHYDLKQPTQPPPLPAAEAEKPESSVSSATGDGNLSPSQPPLKNLLSLLKAYYALNAQPSAEELSKIADSVNLPLDVVKKWFEKMQAGQISVQSSEPSSPEPGKVNIPAKNNDQPQSANANEPQDSTVNLQSPLKMTNSPVLPVGSTTNGSRSSTPSPSPLNLSSSRNTQGYLYTAEGAQEEPQVEPLDLSLPKQQGELLERSTITSVYQNSVYSVQEEPLNLSCAKKEPQKDSCVTDSEPVVNVIPPSANPINIAIPTVTAQLPTIVAIADQNSVPCLRALAANKQTILIPQVAYTYSTTVSPAVQEPPLKVIQPNGNQDERQDTSSEGVSNVEDQNDSDSTPPKKKMRKTENGMYACDLCDKIFQKSSSLLRHKYEHTGKRPHECGICKKAFKHKHHLIEHMRLHSGEKPYQCDKCGKRFSHSGSYSQHMNHRYSYCKREAEERDSTEQEEAGPEILSNEHVGARASPSQGDSDERESLTREEDEDSEKEEEEEDKEMEELQEEKECEKPQGDEEEEEEEEEVEEEEVEEAENEGEEAKTEGLMKDDRAESQASSLGQKVGESSEQVSEEKTNEA
For B1, the binding entry in assay [1] and in assay [2] was “binds” throughout.

B2: HA-tagged ZEB1, ectopically expressed, P37275 1-1124 (protein)
chain: B1 chain
For the molecule B2, the binding result in assay [3] is listed as “binds”.

B3: ZEB1 (endogenous) (protein, UniProt P37275 1-1124)
chain: B1 chain
As for B3, the binding entry in assay [4] is “no binding”.

B4: HA-tagged WT ZEB1, full length, in vitro synthesized, P37275 1-1124 (protein)
chain: B1 chain
On to B4, for which, in assay [5], the binding result is “binds”.

B5: HA-tagged ZEB1, doxycycline-induced in MCF10A cells, P37275 1-1124 (protein)
chain: B1 chain
On to B5, for which, in assay [1], the binding entry is listed as “binds”.
